# Reference: PMC11879137
# Sequences of proteins named here, by UniProt entry; tags and fusion partners are left off. A change or cut given only in a name is not applied to a line headed by its entry.
# UniProt Q9UKI8: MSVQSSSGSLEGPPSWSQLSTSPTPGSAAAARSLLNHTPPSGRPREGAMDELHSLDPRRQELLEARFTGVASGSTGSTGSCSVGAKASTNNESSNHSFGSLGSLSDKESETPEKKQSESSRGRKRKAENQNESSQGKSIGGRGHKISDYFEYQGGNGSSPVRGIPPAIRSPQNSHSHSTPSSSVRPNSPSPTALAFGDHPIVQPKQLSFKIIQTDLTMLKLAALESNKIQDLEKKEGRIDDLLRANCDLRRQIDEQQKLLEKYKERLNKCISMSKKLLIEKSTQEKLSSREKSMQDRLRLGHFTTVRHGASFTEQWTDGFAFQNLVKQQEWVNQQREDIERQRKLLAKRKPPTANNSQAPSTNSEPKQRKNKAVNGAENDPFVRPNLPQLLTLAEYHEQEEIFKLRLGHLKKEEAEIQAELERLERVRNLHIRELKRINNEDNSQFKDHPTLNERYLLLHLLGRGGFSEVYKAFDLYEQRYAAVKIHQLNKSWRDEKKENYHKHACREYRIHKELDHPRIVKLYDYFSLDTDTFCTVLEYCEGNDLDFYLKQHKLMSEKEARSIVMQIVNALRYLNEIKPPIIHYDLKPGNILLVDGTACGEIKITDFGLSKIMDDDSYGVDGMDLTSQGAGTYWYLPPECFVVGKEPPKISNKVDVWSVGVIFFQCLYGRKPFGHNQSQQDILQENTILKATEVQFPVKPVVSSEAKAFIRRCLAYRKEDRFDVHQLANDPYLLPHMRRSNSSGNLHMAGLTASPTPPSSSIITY
# UniProt P12004: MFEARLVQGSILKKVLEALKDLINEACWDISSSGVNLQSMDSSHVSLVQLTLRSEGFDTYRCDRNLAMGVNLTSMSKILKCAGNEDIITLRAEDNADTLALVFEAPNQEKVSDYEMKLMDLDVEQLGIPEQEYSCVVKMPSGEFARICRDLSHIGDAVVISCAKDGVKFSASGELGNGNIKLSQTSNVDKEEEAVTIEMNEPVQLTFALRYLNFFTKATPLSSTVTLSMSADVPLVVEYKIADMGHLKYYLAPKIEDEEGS
# No constants are given. Whether binding was seen depends on the method and setting. In cells and extracts the contact can be indirect. Binding calls can cover weak binding; strength is not graded here.
# Target: TLK1 N-terminal 9S/T to A mutant (human) (UniProt Q9UKI8)
# Assay: pull-down; HEK293T transfected with SFB-tagged TLK1 or TLK2 constructs; streptavidin beads; PCNA detected by Western blot
substance,measurement,value
PCNA (from UniProt P12004 1-261),binding,binds
